Laboratory results as given in patent US20040014147A1 (RIGEL PHARMACEUTICALS, published 2004).
Results are given in words; binding and its absence hold for the method and conditions named. Some entries that bind do so weakly or less than the wild type.

By UniProt entry, the sequences of proteins in these tests, tags left out. Where a name states a change or a piece, a line headed by the entry shows the natural chain unless it says otherwise.
UniProt P55263: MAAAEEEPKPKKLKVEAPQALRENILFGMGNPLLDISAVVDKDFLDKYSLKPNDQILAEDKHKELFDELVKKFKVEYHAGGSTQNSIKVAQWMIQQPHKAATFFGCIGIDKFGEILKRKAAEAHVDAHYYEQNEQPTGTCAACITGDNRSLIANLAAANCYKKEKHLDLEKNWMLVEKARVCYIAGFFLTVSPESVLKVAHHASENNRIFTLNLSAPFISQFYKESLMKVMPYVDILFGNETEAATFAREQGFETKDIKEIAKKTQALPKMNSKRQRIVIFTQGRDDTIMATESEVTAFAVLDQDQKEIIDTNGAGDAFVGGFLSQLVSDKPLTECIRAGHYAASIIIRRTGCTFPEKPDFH

Key:
human adenosine kinase [1] = target: T1, human adenosine kinase (human, UniProt P55263 22-362); assay: yeast two-hybrid
human adenosine kinase [2] = target: T1, human adenosine kinase; assay: yeast two-hybrid interaction profile compared with functional profile
human adenosine kinase [3] = target: T1, human adenosine kinase; assay: yeast two-hybrid, beta-galactosidase signal; category R (reduction of interaction against wild type)

| Binder | binding (human adenosine kinase [1]) | binding (human adenosine kinase [2]) | binding (human adenosine kinase [3]) |
| --- | --- | --- | --- |
| DTMQVQCGVCRSGYVVAFWDVGP (peptide, not shown: large carriers) [peptide AR02E8 wt] | binds | binds | – |
| DTMQVQCGVCAGGYVVAFWDVGP (peptide, not shown: large carriers) [peptide AR02E8RS] | binds | – | binds |
| DTMQVQCGAGRSGYVVAFWDVGP (peptide, not shown: large carriers) [peptide AR02E8VC] | binds | – | binds |
